# Screening data, single-dose tests

Protein sequences, listed by entry. Tags and fused reporters are not part of them. Residues count along the entry.
UniProt P9WFT3, whole entry: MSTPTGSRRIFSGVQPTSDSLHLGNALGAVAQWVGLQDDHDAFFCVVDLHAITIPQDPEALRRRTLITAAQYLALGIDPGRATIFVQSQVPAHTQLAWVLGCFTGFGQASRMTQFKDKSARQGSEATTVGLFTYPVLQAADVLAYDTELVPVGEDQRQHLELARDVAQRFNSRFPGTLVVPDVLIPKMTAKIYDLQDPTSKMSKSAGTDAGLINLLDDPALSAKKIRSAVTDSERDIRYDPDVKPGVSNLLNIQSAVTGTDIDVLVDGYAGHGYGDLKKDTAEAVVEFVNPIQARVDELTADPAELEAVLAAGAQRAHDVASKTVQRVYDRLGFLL
UniProt P9WPC5, whole entry: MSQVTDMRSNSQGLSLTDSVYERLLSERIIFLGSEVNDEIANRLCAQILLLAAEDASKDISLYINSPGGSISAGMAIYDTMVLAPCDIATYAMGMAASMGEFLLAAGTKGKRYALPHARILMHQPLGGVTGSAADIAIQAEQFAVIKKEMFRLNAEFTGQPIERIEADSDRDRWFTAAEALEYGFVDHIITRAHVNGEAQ
UniProt P9WPC3, whole entry partner: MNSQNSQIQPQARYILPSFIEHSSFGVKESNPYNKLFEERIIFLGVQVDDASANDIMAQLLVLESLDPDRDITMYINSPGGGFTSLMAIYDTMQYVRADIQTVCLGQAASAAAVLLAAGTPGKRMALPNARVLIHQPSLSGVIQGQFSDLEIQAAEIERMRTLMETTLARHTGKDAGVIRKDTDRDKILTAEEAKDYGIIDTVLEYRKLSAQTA
UniProt I6X8D2, whole entry: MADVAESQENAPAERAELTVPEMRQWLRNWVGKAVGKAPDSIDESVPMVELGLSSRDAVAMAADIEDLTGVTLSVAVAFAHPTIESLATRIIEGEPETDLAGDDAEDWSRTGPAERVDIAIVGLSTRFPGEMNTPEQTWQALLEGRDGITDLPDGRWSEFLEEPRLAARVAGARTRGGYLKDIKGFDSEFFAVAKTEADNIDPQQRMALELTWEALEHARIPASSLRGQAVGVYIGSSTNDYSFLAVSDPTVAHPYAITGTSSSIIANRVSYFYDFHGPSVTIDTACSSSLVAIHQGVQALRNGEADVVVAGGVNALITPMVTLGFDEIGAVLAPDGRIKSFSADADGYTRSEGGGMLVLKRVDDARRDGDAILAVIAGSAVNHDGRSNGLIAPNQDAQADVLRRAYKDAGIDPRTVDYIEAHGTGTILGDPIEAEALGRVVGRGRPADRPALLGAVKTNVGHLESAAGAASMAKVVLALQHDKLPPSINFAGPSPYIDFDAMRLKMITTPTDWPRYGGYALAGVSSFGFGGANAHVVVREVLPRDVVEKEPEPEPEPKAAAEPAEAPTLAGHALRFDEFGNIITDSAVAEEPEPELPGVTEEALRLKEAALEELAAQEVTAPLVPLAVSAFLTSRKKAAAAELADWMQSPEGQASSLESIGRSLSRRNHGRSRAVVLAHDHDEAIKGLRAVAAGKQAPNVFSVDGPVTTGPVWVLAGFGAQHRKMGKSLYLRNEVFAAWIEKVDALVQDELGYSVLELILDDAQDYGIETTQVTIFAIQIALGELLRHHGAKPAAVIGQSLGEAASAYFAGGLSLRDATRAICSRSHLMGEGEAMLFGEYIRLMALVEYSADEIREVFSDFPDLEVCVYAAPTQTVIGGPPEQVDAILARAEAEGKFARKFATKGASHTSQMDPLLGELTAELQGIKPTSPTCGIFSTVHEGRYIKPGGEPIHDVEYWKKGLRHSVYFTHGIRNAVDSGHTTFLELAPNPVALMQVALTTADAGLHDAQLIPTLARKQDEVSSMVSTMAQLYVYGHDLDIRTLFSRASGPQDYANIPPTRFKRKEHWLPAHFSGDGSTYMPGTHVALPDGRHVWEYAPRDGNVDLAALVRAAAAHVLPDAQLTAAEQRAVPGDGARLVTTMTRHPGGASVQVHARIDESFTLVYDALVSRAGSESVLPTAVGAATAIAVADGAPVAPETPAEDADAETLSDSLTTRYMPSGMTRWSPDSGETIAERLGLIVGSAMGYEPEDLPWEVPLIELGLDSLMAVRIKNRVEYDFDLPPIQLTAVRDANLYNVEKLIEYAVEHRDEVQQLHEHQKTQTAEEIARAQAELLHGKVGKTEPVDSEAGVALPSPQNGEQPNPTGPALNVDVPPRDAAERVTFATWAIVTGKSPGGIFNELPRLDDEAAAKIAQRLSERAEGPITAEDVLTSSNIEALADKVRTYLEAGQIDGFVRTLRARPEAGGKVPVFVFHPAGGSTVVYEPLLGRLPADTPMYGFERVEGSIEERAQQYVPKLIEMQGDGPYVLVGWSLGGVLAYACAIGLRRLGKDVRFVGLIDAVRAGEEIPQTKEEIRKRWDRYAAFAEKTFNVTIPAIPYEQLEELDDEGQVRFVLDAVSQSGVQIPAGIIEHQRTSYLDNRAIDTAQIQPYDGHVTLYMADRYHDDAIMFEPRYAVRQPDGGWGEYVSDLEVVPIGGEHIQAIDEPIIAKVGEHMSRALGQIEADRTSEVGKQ
UniProt Q8IDJ8, 1-583: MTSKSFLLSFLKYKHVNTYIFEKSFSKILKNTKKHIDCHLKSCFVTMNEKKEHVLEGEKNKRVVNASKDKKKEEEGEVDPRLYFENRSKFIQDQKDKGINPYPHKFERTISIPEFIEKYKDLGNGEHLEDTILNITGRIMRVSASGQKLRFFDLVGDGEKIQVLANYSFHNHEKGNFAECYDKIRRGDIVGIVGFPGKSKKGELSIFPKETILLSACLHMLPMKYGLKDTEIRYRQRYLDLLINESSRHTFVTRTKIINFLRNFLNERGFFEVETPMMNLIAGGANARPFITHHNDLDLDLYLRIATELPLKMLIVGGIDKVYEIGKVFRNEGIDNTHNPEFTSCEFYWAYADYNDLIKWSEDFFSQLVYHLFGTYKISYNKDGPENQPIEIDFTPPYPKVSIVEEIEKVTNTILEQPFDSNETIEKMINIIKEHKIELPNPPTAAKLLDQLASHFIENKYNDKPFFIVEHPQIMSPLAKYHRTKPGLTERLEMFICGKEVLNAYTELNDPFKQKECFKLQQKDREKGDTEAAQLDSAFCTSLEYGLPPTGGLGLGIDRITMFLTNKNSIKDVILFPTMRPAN

From ChEMBL document CHEMBL3988442, “University of Dundee, Small-Polar-MMV Screening Library” (2021).

MtTrpRS: 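Enzyme assay of tryptophanyl-tRNA synthetase; the read-out is not stated. Target: Tryptophan-tRNA ligase, Mycobacterium tuberculosis (UniProt P9WFT3). Compounds at 10 µM. Higher most likely means stronger inhibition; the record gives no direction and few retests gave an IC50. Size under these conditions: about 65,000 compounds, about 64 of them at 50% or above in at least one test.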
ClpP1P2: 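ClpP1P2, Mycobacterium tuberculosis (UniProt P9WPC5 and UniProt P9WPC3). Protease assay of ClpP1P2, read by the AMC dye that it sets free. Tested at 50 µM. Higher reads as stronger inhibition, judged from the few compounds that gave an IC50. Most other retested compounds had strongly negative values. About 69,000 compounds were tested under these conditions; 0.015% (about 10) showed 50% or more at least once.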
Pks13 thioesterase: 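Enzyme assay of the thioesterase domain of polyketide synthase 13; the read-out is not stated. Target: Polyketide synthase Pks13, Mycobacterium tuberculosis (UniProt I6X8D2). Tested at 30 µM. The record gives no direction; the compounds picked for IC50 retests had high values, so higher reads as stronger inhibition. About 67,000 compounds were tested under these conditions; 0.46% (about 300) showed 50% or more at least once.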
PfKRS1: 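Lysine-tRNA ligase, Plasmodium falciparum 3D7 (UniProt Q8IDJ8). Enzyme assay of the cytosolic lysyl-tRNA synthetase in 384-well plates, read by luminescence. Concentration: 30 µM. Higher reads as stronger inhibition, judged from the few compounds that gave an IC50. Size under these conditions: about 69,000 compounds, about 49 of them at 50% or above in at least one test.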

Results are given as percent effect. The record does not define 0% and 100%; most values in the screen are far below 50% and negative numbers occur (in some assays of this library far below -100). This is an unselected part of the compounds tested. A dash means the value is not listed here; it may have been measured.

| Compound | MtTrpRS | ClpP1P2 | Pks13 thioesterase | PfKRS1 |
|---|---|---|---|---|
| `O=C(CCN1CCCCC1)N1CCC(Cc2ccc(CO)cc2)C1` (stereo not shown) | 1.754 | -2.5 | -20.59 | 1.245 |
| `CN(CC1Cc2ccccc2CN1C)C(=O)Cc1cccs1` (stereo not shown) | -3.964 | -3.394 | 9.641 | 2.519 |
| `O=C(c1cccs1)N1CCN(C(=O)c2ncoc2-c2ccco2)CC1` | -3.995 | 11.09 | -22.32 | 8.455 |
| `COCC(=O)N1CCCN(Cc2cc(C(C)C)no2)CC1` | -4.157 | 18.24 | -8.759 | 0.1692 |
| `CCn1c(C)nc2cc(NC(=O)CC3CCCCO3)ccc21` (stereo not shown) | -6.496 | -17.18 | 2.111 | -0.2419 |
| `Cc1nc(CC(=O)NCc2csc(N3CCCC3)n2)cs1` | 2.457 | 4.45 | -6.994 | 0.2111 |
| `CN(CCN1CCCC1=O)S(=O)(=O)CC1CCCC1` | -9.208 | -10.98 | -20.12 | 3.556 |
| `CN(Cc1cccnc1)CC1CN(C(=O)C2CC2)Cc2nccn2C1` (stereo not shown) | -6.502 | -13.45 | -0.6871 | -3.228 |
| `CC(=O)N1CCc2[nH]nc(C(=O)N3CC=CC3)c2C1` | -3.025 | 2.732 | -2.497 | 6.268 |
| `O=C1NCCCC12CCN(c1nc3c(c(C(F)(F)F)n1)CCCC3)C2` (stereo not shown) | 4.769 | -5.926 | -29.11 | 3.296 |
| `Cn1ccnc1COc1ccc(CN2CCN(CCO)CC2)cc1` | -3.597 | 25.69 | -10.93 | 3.513 |
| `Fc1ccc(CN2CCC3(CC2)CCN(Cc2nccs2)CC3)cc1` | -5.124 | 3.597 | -16.65 | 3.143 |
| `CCCN(CCc1ccccn1)C(=O)Cn1cc(C)cn1` | 0.4591 | 2.042 | -0.6735 | 2.407 |
| `F[C@@H]1CN(Cc2cccnc2)C[C@@H]1OCc1nc2ccccc2[nH]1` | -3.738 | 1.345 | -22.79 | 10.33 |
| `CNS(=O)(=O)CC(=O)NCc1cc2c(s1)CCCCC2` | -0.3068 | -0.01567 | -50.57 | 1.431 |
| `Cn1cc2c(n1)C(COCC1CC1)CN(Cc1ccccn1)C2` (stereo not shown) | 2.005 | 3.317 | -43.21 | 0.8266 |
| `c1cnc(NC2COC3(CCN(Cc4cc[nH]n4)CC3)C2)nc1` (stereo not shown) | 1.414 | 8.826 | 25.89 | 3.422 |
| `CC(C)NC(=O)N[C@H]1C[C@@H](c2nc(-c3ccncc3)no2)N(C)C1` | -7.36 | -11.06 | -0.5869 | 0.7314 |
| `CCc1ncc2c(n1)CN(c1cc(NCCO)nc(N)n1)C2` | 5.034 | -16.95 | -14.61 | 11.69 |
| `O=C1CC2(CCN(Cc3ccc4cccc(O)c4n3)CC2)CN1` | -0.5198 | -1.776 | -3.559 | 3.739 |
| `CS(=O)(=O)CC(=O)N1C[C@@H]2COC[C@]2(c2nnc(C3CC3)o2)C1` | 4.302 | 17.71 | -37.92 | -5.055 |
| `Cc1cc(CC(C)NC(=O)COc2ccc(F)cc2F)[nH]n1` (stereo not shown) | 1.589 | 0.885 | -0.1404 | 4.066 |
| `CCOc1ccc(NS(=O)(=O)c2cc(C)c(C(=O)O)s2)cc1F` | 5.541 | 1.501 | -32.09 | 4.505 |
| `Cc1noc(-c2ccc(N3CCC[C@H]3CO)nc2)n1` | -4.131 | 1.333 | 5.706 | 0.8745 |
| `O=C(NCc1cc[nH]n1)N1CCCCC(N2CCCC2)C1` (stereo not shown) | 3.801 | -5.501 | - | 6.439 |
| `OCCC[C@@H]1CN(c2ncc(Cl)cc2Cl)CC[C@@H]1N1CCOCC1` | -7.74 | 5.222 | 3.835 | -0.9628 |
| `CCN(CC)c1ncc(CNC2CCc3nc(C(C)C)nn3C2)s1` (stereo not shown) | -6.502 | -0.2473 | -44.12 | 2.756 |
| `CC(=O)N1CCSCC1c1ccc(C)o1` (stereo not shown) | -2.917 | 4.572 | -10.57 | 1.092 |
| `Cc1ccc(NC(=O)N2C[C@H]3CC[C@@H]2CN(Cc2cscn2)C3)cc1` | -0.919 | -13.07 | 13.16 | 1.845 |
| `CC(C)N(CCO)C(=O)C1CCC(=O)N(Cc2ccc(Cl)cc2)C1` (stereo not shown) | -4.509 | -0.1888 | -30.91 | 3.644 |
| `COCCNC(=O)NCc1ccc(OC(C)C)c(F)c1` | -4.386 | 3.115 | -7.967 | 2.274 |
| `NC(=O)N1CCCC1COC(=O)c1ccc(F)cc1Br` (stereo not shown) | 4.046 | -2.322 | -14.76 | 5.836 |
| `COc1cccc(C(=O)N2C[C@H]3CC[C@@H]2CN(Cc2cscn2)C3)c1` | 2.225 | -6.008 | -45.67 | 4.853 |